Laboratory results: patent US20110275701

Test system: thrombin
Assay: activity assay
Conditions: functional anticoagulation in vivo, not direct binding; ACT per subject at 6.0 mg/kg/hr infusion after 2 mg/kg bolus, about 3x baseline; protein details: endogenous plasma thrombin in healthy volunteers; single-stranded DNA

CGCCTAGGTTGGGTAGGGTGGTGGCG [NU172 (ARC2172)]
functional effect of the aptamer: active
